Values are the deposited “Percent Effect”, in %. How 0% and 100% were set is not recorded. Most values in the screen are low, and negative values occur. This is an unselected part of the compounds tested. Two or more numbers in one place are separate tests of the same structure; such repeats can differ widely. A dash means the value is not listed here; it may have been measured.

By UniProt entry, the sequences of proteins in these tests, tags left out. Residues count along the entry.
UniProt Q4DA54, 1-478: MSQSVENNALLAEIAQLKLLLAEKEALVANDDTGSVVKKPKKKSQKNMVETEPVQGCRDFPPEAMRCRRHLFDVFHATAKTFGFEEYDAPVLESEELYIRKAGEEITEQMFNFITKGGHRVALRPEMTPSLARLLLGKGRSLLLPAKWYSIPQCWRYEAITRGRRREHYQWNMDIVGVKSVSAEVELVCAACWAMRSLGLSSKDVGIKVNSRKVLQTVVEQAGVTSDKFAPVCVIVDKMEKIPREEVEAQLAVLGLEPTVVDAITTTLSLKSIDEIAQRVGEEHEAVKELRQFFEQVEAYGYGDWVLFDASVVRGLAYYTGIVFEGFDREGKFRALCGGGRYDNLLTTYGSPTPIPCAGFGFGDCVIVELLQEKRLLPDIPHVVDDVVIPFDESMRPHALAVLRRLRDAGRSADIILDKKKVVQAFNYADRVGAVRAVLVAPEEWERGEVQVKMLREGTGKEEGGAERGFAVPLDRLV
UniProt P9WNZ1, whole entry: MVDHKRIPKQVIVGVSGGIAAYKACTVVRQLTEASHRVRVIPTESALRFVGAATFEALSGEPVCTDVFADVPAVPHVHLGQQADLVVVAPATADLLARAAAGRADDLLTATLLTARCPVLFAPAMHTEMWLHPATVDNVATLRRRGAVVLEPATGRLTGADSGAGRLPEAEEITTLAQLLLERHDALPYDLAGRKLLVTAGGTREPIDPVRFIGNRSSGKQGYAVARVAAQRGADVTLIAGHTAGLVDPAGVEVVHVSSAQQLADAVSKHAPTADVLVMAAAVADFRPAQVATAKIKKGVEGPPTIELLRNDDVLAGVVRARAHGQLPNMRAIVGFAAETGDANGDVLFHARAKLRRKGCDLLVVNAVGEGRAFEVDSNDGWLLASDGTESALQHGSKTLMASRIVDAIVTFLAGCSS
UniProt A4I591, 1-473: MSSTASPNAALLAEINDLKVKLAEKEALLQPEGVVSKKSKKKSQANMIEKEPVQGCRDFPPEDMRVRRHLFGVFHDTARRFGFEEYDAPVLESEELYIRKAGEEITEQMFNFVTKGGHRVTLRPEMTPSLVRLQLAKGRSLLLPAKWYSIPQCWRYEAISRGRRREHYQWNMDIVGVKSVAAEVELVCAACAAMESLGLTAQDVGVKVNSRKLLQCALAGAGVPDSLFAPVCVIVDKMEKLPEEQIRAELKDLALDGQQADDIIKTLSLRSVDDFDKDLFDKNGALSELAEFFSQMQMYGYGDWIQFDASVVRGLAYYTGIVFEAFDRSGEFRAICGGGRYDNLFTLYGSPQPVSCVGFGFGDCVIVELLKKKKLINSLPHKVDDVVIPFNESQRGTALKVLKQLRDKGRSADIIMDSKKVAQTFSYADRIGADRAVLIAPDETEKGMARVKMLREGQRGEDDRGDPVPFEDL

TcHisRS: 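Histidine-tRNA ligase, Trypanosoma cruzi CL Brener (UniProt Q4DA54). Enzyme assay of histidyl-tRNA synthetase; the read-out is not stated. Compounds at 30 µM. The record gives no direction; compounds that gave an IC50 in retests scored well above the rest, so higher reads as stronger inhibition. About 69,000 compounds were tested under these conditions; 0.045% (about 31) showed 50% or more at least once.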
Leishmania in macrophages: 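Cell assay of Leishmania donovani living inside macrophages; the read-out is not stated. Compounds at 30 µM. The record gives no direction; compounds that gave an IC50 in retests scored well above the rest, so higher reads as stronger inhibition. Size under these conditions: about 69,000 compounds, about 1,000 of them at 50% or above in at least one test.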
Toxoplasma: 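Assay of Toxoplasma gondii numbers, read through their beta-galactosidase reporter with a colour substrate. Compounds at 10 µM. Higher reads as fewer parasites (inferred from which compounds were picked for retests). Size under these conditions: about 67,000 compounds, about 260 of them at 50% or above in at least one test.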
CoaBC: 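Enzyme assay of CoaBC with a phosphate dye (Biomol Green) read at 650 nm. Target: Coenzyme A biosynthesis protein CoaBC, Mycobacterium tuberculosis (UniProt P9WNZ1). Tested at 30 µM. Direction is inferred from only a few compounds that gave an IC50; most scored high, so higher reads as stronger inhibition. Most strong results did not repeat in a second test. Of about 67,000 compounds tested this way, about 40 (0.06%) reached 50% or more in at least one test.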
LiHisRS: 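Histidine-tRNA ligase, Leishmania infantum (UniProt A4I591). Enzyme assay of histidyl-tRNA synthetase; the read-out is not stated. Concentration: 30 µM. The record gives no direction; compounds that gave an IC50 in retests scored well above the rest, so higher reads as stronger inhibition. The assay is labelled LdHisRS but filed under L. infantum. About 69,000 compounds were tested under these conditions; 0.6% (about 410) showed 50% or more at least once.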

| Compound | TcHisRS | Leishmania in macrophages | Toxoplasma | CoaBC | LiHisRS |
|---|---|---|---|---|---|
| `CNc1nc(C(=O)N2CCn3nc(C(=O)OC)cc3C2)cs1` | 7.035 | 0.0199 | 1.783 | 7.12 | 12.94 |
| `Cc1ccc2[nH]c(C3CCN(CC(N)=O)CC3)nc2c1` | 2.326 | -4.065 | -5.704 | -10.18 | 8.511 |
| `c1cc(CCN2CCN(c3ccc4nncn4n3)CC2)ccn1` | 2.286 | 25.21 | -10.72 | 4.301 | 5.769 |
| `O=C(O)[C@@H]1CCCN1c1nccc(Nc2ccccc2)n1` | 3.409 | - | - | -1.942 | 0 |
| `Cc1nc(CC(=O)N2CCC3(CC2)CC(=O)N(CC2CCCO2)C3)cs1` (centres undefined) | 3.409 | -8.555 | -3.827 | -6.21 | -6.667 |
| `CCOCC1CN(C(=O)c2cccnc2)Cc2cnn(C)c21` (centres undefined) | 6.667 | -0.7388 | 4.698 | -2.343 | 8.333 |
| `O=C(c1ccccn1)N1C[C@@H]2CC[C@H](C1)N(C(=O)Cc1cccs1)C2` | -3.518 | - | - | -0.6031 | 18.4 |
| `COCCn1cnc2ccc(NC(=O)c3ccc(OC)cc3)cc2c1=O` | 5.941 | 23.03 | - | 3.038 | 15.22 |
| `COc1ccccc1C1(CNCc2cccc(C#N)c2)CCOCC1` | 9.278 | 12.25 | 7.788 | -2.358 | 49.45 |
| `COc1ccc(OC)c(CN2CCCCCC2c2cccs2)c1` (centres undefined) | -2.174 | -38.7 | -5.876 | 8.238 | 20.39 |
| `N#CCCN1CCN(S(=O)(=O)c2ccc(Cl)s2)CC1` | 4.04 | -8.566 | 14.52 | -1.01 | -1.064 |
| `O=C(C1CCCCC1)N1CC2(CCNCC2)C1` | -1.942 | - | - | -0.2545 | 15.53 |
| `COc1cccc2c1OCC(C(=O)NCc1ncc3c(n1)CCC3)C2` (centres undefined) | 4.348 | 25.76 | 17.41 | 0.5834 | 16.67 |
| `O=C(O)C(F)(F)F.O=C(O)C(F)(F)F.O=C(O)C(F)(F)F.[H][C@@]12CCN(c3ncccn3)[C@@]1([H])CCN2Cc1ccccn1` | - | 13.33 and 5.205 | 2.583 | - | - |
| `CSC(C)(C)CNC(=O)NCc1cccc(-n2cncn2)c1` | 3.488 | -36.12 | -0.4058 | -5.579 | 13.11 |
| `CCc1cnc(CN(C)C2CCN(CC3CCN(C(C)=O)CC3)C2)o1` (centres undefined) | 3.509 | 21.9 | 7.847 | 5.626 | 15.93 |
| `Cc1oncc1C(=O)N1CC[C@H]2CO[C@H](CN3CCCC3)[C@H]2C1` | 2.299 | - | - | -7.128 | -5.263 |
| `CCCN(Cc1nc(-c2ccc(F)c(OC)c2)oc1C)CC1CCCO1` (centres undefined) | 3.863 | 18.21 | 9.055 | -4.904 | 11.48 |
| `COCCN(C(=O)c1ccn(-c2ccc(OC)cc2)n1)C(C)C(N)=O` (centres undefined) | 9 | -1.693 | -11.02 | 0.9685 | 19.57 |
| `COCC1CN(C(=O)c2cccn2C)Cc2ncnn2C1` (centres undefined) | 0.8368 | 0.326 | 29.95 | -6.818 | 16.04 |
| `O=C(O)C(F)(F)F.[H][C@@]12CN(C(=O)c3ccoc3C)C[C@]1([H])OCCN2C(C)C` | - | 12.47 | 3 | - | - |
| `Cc1nc(CN(Cc2ccccc2F)C2CCC2)no1` | 7.447 | 1.464 | -0.1248 | -1.844 | -1.429 |
| `Cc1ccc(CN2CCCC(c3nnc(CN4CCCC4)n3C)C2)s1` (centres undefined) | 6.533 | -14.08 | 7.461 | -3.981 | 20 |
| `[H][C@@]12CNC[C@]1(C(=O)O)CN(C(=O)Nc1ccc(-c3ccccc3)cc1)C2` | - | 0.4442 | -0.8506 | - | - |
| `CCCn1cc(C(=O)n2nc(C)cc2C)c(S(=O)(=O)N2CCSCC2)n1` | 3.704 | 10.93 | -8.754 | 0.8147 | 29.41 |
| `CCOc1ccc(C(=O)Nc2c(C)nc3ccccn3c2=O)cc1` | -4.878 | -10.55 and 17.23 | 9.323 | 0.5063 | 21.05 |
| `CS(=O)(=O)N1CCC2(CC1)NCCn1c(-c3ccccc3)cnc12` | 6.329 | - | - | - | 15.52 |
| `c1csc(CN2CCc3ncnc(C4CCOC4)c3CC2)n1` (centres undefined) | 2.488 | - | - | 6.129 | 22.22 |
| `CN1CC2(CCN(C(=O)c3[nH]cnc3-c3ccccc3)C2)OC1=O` (centres undefined) | 0 | 25.57 | -13.36 | 0 | 8.197 |
| `Cc1cs/c(=N\C(=O)Cn2nc(N3CCOCC3)ccc2=O)[nH]1` | 1.031 | 4.555 | 22 | 33.49 and 11.86 | 3.297 |
| `COCC1CN(CCOc2ccc(Cl)cc2)Cc2c1cnn2C.O=C(O)C(F)(F)F.O=C(O)C(F)(F)F` (centres undefined) | - | 11.38 | -16.09 | - | - |
| `Cc1nc(O)cc(CCNC(=O)c2ccccc2N2CCCC2)n1` | 3.863 | 13.58 | 33.81 | -20.22 | 1.639 |
| `O=C1CC[C@@H]2[C@@H](CCN2C(=O)c2ccsc2)N1CC1CC1` | 2.762 | - | - | 1.285 | 7.519 |
| `Cc1cnccc1CN(C)C(=O)C(C)(C)NC(=O)c1cccs1` | 4.819 | -0.6413 and 16.71 | -21.33 | -1.272 | 17.95 |
| `Oc1cc(-c2ccccn2)nc(C2CCN(Cc3ccncc3)CC2)n1` | 7.752 | -23.34 | -11.13 | -7.485 | 9.929 |
| `Cc1cccc(CC(=O)N2CCOCC2c2c(C)n[nH]c2C)c1` (centres undefined) | 2.439 | -38.7 | -20.59 | 3.165 | 1.205 |
| `Cc1ccc(CC2COCCN(S(C)(=O)=O)C2)nc1` (centres undefined) | 4.215 | -4.69 | 10.55 | 7.282 | 10 |
| `Fc1ccc(CN2CCC(c3nccnc3-n3ccnc3)CC2)cc1` | -0.5405 | -12.92 | 12.88 | -1.111 | 13.89 |
| `[H][C@@]12CN(C(=O)NC(C)C)C[C@]1([H])C(=O)N(Cc1cccc(C)c1)C2` | - | 1.992 | -3.486 | - | - |
| `O=C(NCCc1c[nH]cn1)c1ccc2c(c1)C(=O)N(C1CCCC1)C2=O` | 2.41 | -11.46 and -10.24 | 13.15 | 1.018 | 2.564 |
| `CN1C(=O)CC(c2ccccc2)C12CCN(CCO)CC2` (centres undefined) | 1.942 | - | - | 2.445 | 7.692 |
| `CCN(C(=O)CN(C)C(c1cccc(F)c1)c1ccccn1)C1CC1` (centres undefined) | 3.053 | 29.18 | 1.8 | 1.928 | 16.44 |
| `CC1(C)CN(CC(F)(F)F)CCN1CC(N)=O` | 2.381 | 13.64 | -1.218 | -1.225 | 11.11 |
| `COCCN1CCCC(c2cncc(Oc3ccccc3OC)n2)C1` (centres undefined) | 12.17 | 39.74 | 3.866 | 0.3708 | 11.72 |
| `COc1ccccc1CC1CCCN(C(=O)c2n[nH]c3c2CCC3)C1` (centres undefined) | 13.37 | 15.38 | -1.935 | 16.09 | 4.712 |
| `Oc1nc(N2CCCC2)nc2c1CCN(Cc1cccnc1)CC2` | 2.222 | 2.787 and 10.04 | -1.97 | 0 | 6.186 |
| `CC(CCc1cccc(F)c1)NC(=O)NCc1ncnn1C` (centres undefined) | 6.818 | 15.16 | -16.96 | -4.925 | 8.333 |
| `CN(C)C(=O)N1CCC2(CC1)C(c1cnn(C)c1)CC(=O)N2C` (centres undefined) | 14.29 | 22.72 | -9.941 | -2.637 | 10.09 |
| `Nc1cccnc1N1CCCCCC1` | 19.79 | - | - | -5.984 | 58.33 |
| `COCCN1C[C@H]2CCN(C(=O)c3cc(C)on3)CC[C@H]2S1(=O)=O` | 1.942 | - | - | 3.732 | 9.615 |
| `Cc1c(Cl)c(C(=O)NN2CCOCC2)nn1C` | 0.4464 | 19.56 | -7.872 | 3.061 | 8.642 |
| `Cc1ccc(C(=O)N2CCO[C@H]3[C@H](OCCN(C)C)CC[C@@H]32)cn1` | 3.738 | - | - | -11.36 | 9.722 |
| `CC(C)OCc1nn(CC2CC2)c2c1CN(Cc1ccco1)CC2.O=C(O)C(F)(F)F` | - | 3.934 | -45.7 | - | - |
| `CCS(=O)(=O)N1CCC2(CCN(C(=O)c3cccs3)CC2)CC1` | 8.543 | 34.15 | -37.66 | 4.084 | 13.86 |
| `CCOCCN1CCN(CCCc2nnnn2-c2ccccc2)CC1` | 1.571 | 8.685 | 1.923 | -4.069 | 8.621 |
| `O=S(=O)(c1ccc(Cl)cc1)N1CCOC[C@H](Oc2cnccn2)C1` | 0.4975 | 26.35 | 2.504 | 0.5894 | 27.03 |
| `CCc1cc(=O)[nH]c2nnc(SCC(=O)NC(C)C)n12` | 1.02 | -15.02 | 7.647 | 0.3745 | 6.612 |
| `CC(C)c1nn(C)c(N(C)C)c1CNCc1ccccc1CO.Cl` | - | 5.046 | 13.3 | - | - |
| `Cc1nc(COCc2nc3c(o2)CN(C(=O)c2ccoc2)C3)cs1` | 11.04 | 40.74 | -3.351 | - | 11.97 |
| `COCc1nc(C(=O)NS(=O)(=O)c2ccc(C)c(C)c2)cs1` | 10.84 | -17.87 | -22.22 | 11.88 | -16 |
| `Cc1nc(CN2CCN(Cc3ccoc3)Cc3cccnc32)cs1` | 9.29 | - | - | -1.416 | 3.922 |

Some entries from above, unchanged:

Compound	TcHisRS	Leishmania in macrophages	Toxoplasma	CoaBC	LiHisRS
Cc1ccc2[nH]c(C3CCN(CC(N)=O)CC3)nc2c1	2.326	-4.065	-5.704	-10.18	8.511
CCOCC1CN(C(=O)c2cccnc2)Cc2cnn(C)c21 (centres undefined)	6.667	-0.7388	4.698	-2.343	8.333
COCCN1C[C@H]2CCN(C(=O)c3cc(C)on3)CC[C@H]2S1(=O)=O	1.942	-	-	3.732	9.615
COCCn1cnc2ccc(NC(=O)c3ccc(OC)cc3)cc2c1=O	5.941	23.03	-	3.038	15.22
COCC1CN(C(=O)c2cccn2C)Cc2ncnn2C1 (centres undefined)	0.8368	0.326	29.95	-6.818	16.04
O=C(NCCc1c[nH]cn1)c1ccc2c(c1)C(=O)N(C1CCCC1)C2=O	2.41	-11.46 and -10.24	13.15	1.018	2.564
O=C(C1CCCCC1)N1CC2(CCNCC2)C1	-1.942	-	-	-0.2545	15.53

Data taken from ChEMBL document CHEMBL3988442, “University of Dundee, Small-Polar-MMV Screening Library” (2021).